This note sets out measurements from patent US7419799.

Sequences of proteins named here, by UniProt entry; tags and fusion partners are left off. A change or cut given only in a name is not applied to a line headed by its entry.
UniProt Q96DU3: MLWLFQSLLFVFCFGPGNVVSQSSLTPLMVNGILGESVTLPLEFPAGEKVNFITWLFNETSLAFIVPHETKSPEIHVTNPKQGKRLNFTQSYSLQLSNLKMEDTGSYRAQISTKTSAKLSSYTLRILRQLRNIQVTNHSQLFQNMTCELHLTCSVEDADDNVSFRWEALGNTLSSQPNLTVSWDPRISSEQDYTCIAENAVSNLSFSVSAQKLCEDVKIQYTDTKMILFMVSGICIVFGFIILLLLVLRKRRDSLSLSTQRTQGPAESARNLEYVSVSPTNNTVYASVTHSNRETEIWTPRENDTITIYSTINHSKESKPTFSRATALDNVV

Results are given in words; binding and its absence hold for the method and conditions named. Some entries that bind do so weakly or less than the wild type.

Assay [1] addresses PRO20080 ECD-Fc fusion protein (human) [IgG part: P01857]. As to the kind of experiment: ELISA (legend of FIG. 6).
The target is the same in assay [2]. As to the kind of experiment: ELISA, PRO20080-Fc coated at 2 µg/ml, streptavidin-HRP detection. For orientation: In an ELISA, binding on a coated surface is turned into a signal by an enzyme label.

“biotinylated PRO20080 (from UniProt Q96DU3 22-226) (receptor)”: the binding result in assay [1] and in assay [2] was “binds” each time.
